Among the data in the supplement of paper PMC10849652 are log2 fold change values, retold here.

Amino acid sequences for entries named in this document (tags omitted). A change or cut given only in a name is not applied to a line headed by its entry.
UniProt Q16576, whole entry, looked up: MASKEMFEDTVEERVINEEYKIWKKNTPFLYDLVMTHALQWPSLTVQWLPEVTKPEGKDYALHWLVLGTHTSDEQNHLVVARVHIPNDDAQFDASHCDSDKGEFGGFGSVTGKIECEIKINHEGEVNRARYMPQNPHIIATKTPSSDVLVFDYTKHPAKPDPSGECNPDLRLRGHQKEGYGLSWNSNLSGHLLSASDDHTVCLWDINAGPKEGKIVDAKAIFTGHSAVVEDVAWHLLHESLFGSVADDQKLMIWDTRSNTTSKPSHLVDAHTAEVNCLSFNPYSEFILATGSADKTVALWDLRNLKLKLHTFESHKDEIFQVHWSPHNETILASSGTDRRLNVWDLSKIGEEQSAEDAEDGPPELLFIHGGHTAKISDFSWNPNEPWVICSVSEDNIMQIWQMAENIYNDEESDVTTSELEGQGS
UniProt Q13637: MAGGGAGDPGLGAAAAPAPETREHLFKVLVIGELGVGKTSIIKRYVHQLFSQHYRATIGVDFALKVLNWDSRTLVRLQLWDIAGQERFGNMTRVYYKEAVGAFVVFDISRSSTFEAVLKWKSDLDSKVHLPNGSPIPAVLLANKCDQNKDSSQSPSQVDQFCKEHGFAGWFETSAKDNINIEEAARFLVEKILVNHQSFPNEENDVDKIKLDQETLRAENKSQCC
UniProt P43487, whole entry, looked up: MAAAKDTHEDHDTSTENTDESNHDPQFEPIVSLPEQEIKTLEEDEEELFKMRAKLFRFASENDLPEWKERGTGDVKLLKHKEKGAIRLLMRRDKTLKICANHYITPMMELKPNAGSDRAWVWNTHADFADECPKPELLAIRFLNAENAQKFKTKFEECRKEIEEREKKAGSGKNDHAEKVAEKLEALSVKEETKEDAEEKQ
UniProt P61020: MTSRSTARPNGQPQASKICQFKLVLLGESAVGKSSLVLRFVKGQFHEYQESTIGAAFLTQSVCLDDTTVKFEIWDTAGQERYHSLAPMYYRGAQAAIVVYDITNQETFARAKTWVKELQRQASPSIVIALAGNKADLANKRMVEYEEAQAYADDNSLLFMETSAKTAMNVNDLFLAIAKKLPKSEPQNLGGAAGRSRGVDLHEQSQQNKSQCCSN
UniProt Q53S08: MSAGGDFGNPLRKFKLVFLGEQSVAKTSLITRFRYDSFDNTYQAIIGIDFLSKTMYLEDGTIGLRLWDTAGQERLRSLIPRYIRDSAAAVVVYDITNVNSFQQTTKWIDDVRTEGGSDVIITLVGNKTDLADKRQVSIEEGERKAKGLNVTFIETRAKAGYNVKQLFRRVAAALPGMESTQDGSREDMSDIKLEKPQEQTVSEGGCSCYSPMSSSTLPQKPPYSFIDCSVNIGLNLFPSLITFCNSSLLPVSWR
UniProt P51149, whole entry, looked up: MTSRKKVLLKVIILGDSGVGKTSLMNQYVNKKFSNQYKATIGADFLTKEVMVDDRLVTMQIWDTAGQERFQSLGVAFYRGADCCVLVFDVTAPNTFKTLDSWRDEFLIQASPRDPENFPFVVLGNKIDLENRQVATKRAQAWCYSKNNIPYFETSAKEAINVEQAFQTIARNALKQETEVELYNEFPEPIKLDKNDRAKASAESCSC
UniProt Q3YEC7: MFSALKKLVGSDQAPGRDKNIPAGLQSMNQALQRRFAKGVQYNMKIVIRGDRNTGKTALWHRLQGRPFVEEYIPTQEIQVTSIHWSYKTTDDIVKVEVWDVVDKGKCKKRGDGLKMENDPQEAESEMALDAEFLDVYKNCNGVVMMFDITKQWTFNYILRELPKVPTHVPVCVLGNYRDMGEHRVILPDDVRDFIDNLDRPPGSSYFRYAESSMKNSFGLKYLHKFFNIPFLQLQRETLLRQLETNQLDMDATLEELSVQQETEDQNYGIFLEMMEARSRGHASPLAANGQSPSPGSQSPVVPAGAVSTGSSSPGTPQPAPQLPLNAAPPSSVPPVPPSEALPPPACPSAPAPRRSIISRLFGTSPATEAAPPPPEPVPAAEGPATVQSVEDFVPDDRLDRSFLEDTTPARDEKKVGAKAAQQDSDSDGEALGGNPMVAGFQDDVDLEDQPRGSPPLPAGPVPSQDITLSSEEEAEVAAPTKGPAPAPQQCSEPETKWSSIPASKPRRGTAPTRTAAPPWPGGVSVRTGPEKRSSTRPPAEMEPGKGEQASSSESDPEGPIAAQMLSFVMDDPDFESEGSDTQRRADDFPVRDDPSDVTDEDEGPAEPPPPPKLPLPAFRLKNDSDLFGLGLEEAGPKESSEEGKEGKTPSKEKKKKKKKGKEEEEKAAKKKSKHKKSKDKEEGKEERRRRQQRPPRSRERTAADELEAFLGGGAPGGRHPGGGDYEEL
UniProt P20336: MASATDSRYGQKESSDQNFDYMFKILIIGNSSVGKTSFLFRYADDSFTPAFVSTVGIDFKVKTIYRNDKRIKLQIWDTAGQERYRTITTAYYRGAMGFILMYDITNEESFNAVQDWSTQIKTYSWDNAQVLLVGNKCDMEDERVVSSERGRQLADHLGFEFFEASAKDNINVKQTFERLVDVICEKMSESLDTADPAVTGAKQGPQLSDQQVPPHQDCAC
UniProt Q09028, whole entry, looked up: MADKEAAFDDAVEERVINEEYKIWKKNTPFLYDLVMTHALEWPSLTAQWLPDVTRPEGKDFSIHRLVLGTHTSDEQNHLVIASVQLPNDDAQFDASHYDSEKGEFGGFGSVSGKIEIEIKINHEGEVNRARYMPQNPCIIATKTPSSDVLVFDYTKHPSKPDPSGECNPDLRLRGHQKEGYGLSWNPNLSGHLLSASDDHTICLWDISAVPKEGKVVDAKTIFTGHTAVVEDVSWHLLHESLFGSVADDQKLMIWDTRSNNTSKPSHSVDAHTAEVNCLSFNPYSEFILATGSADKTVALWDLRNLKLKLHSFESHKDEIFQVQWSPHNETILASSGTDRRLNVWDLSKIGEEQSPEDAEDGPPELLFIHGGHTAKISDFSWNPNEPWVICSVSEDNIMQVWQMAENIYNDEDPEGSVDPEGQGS
UniProt Q9ULC3: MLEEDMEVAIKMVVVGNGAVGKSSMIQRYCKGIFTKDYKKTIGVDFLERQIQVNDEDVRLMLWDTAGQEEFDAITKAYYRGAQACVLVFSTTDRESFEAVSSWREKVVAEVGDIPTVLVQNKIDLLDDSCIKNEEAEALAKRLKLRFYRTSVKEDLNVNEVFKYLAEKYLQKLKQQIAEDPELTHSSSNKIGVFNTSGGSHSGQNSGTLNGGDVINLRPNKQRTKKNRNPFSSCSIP
UniProt P51153: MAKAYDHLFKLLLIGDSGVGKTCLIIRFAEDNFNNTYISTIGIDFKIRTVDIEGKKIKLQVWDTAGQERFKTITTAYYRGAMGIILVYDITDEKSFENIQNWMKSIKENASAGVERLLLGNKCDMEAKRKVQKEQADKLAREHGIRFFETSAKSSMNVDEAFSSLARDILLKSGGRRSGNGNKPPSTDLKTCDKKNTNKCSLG
UniProt O75771: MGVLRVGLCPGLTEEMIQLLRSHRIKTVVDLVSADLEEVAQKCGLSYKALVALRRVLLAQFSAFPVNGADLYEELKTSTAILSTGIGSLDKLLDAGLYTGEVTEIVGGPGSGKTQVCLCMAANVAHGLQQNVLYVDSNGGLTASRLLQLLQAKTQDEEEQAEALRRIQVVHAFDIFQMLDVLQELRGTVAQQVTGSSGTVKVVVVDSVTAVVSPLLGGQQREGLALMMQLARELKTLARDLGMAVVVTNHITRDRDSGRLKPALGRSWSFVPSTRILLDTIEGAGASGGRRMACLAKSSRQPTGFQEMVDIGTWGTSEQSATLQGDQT
UniProt Q86WH2: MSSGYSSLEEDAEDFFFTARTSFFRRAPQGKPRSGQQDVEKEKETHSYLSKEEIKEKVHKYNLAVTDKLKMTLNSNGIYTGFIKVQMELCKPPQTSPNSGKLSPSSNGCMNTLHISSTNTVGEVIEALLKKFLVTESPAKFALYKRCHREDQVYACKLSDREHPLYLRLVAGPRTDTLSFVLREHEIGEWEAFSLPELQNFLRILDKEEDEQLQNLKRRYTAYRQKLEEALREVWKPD
UniProt P10114: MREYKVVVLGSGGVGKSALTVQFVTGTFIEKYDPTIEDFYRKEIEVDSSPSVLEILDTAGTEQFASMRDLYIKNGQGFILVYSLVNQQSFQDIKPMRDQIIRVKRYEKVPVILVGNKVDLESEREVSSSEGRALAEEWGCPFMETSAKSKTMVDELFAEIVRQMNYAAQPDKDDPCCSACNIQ
UniProt Q9UI14, whole entry, looked up: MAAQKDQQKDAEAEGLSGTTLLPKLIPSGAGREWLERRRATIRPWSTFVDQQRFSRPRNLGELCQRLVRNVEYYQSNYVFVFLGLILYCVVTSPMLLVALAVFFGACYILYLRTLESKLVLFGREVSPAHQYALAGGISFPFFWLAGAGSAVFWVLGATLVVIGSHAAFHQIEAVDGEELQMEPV
UniProt Q7Z6M1: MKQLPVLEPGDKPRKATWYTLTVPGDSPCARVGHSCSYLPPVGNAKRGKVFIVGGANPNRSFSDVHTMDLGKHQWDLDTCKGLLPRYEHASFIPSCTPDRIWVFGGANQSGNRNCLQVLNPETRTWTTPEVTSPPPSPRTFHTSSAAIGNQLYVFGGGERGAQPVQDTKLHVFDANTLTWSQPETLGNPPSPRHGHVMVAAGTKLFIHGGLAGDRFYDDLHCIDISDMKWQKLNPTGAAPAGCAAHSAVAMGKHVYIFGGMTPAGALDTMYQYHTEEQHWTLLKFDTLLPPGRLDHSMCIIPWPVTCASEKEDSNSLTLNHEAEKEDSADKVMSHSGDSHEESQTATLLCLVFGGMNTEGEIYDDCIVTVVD
UniProt Q13636: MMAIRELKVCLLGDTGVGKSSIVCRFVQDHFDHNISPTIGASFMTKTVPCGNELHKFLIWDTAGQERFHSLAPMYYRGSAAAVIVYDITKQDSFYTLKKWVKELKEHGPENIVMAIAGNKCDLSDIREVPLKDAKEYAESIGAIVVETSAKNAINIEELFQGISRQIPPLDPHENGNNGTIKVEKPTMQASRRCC
UniProt Q86YS6: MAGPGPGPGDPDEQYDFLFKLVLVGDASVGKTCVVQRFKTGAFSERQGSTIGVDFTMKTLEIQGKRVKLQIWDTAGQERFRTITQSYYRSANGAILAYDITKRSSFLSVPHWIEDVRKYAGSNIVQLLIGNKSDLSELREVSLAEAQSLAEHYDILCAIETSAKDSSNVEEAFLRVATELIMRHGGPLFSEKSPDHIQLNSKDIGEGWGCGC
UniProt Q9NRW1: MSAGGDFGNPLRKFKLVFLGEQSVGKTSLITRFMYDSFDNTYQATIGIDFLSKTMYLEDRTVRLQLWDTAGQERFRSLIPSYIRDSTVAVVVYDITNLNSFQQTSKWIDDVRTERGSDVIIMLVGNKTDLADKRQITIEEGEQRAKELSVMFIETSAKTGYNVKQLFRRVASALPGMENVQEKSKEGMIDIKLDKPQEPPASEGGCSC
UniProt Q15771: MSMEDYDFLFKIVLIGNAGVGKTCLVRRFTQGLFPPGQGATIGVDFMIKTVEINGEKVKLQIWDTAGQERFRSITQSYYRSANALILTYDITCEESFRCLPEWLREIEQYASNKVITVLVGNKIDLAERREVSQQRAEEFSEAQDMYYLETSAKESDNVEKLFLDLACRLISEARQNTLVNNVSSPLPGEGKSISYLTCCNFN
UniProt P61019: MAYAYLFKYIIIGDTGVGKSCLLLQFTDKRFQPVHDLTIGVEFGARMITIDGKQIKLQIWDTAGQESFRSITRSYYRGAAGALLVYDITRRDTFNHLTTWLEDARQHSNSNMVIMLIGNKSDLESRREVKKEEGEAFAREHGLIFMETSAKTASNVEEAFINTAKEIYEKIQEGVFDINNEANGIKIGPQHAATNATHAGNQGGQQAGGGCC
UniProt P46060: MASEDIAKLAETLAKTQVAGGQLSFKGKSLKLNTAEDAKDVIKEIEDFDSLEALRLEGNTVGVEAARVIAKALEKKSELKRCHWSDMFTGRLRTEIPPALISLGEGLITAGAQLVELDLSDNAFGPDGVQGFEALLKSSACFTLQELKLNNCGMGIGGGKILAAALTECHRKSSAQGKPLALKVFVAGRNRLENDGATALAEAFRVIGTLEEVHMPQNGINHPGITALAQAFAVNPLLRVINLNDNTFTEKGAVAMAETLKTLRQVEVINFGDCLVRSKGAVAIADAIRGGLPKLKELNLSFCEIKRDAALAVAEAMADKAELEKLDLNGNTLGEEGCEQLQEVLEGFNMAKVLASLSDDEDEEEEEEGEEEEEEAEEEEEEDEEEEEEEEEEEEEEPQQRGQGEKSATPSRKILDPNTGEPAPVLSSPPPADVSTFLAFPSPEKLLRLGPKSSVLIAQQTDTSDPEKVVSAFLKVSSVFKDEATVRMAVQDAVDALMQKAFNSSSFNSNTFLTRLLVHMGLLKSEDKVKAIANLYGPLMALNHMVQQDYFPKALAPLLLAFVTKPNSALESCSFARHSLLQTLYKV
UniProt Q9NX57: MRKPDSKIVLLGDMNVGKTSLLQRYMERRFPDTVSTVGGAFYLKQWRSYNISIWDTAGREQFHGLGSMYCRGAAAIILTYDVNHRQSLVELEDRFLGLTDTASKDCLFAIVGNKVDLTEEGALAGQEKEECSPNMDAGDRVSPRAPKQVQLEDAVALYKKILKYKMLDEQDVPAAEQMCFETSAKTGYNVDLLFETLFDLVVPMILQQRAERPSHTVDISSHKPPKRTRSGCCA

The other results are listed elsewhere or left out.

Compound in this assay: c1cn2cc(-c3ccc4cn[nH]c4c3)nc(Nc3ccc(N4CCOCC4)cc3)c2n1 [entospletinib]
The experiment in a line: log2 fold change, soluble protein after heating vs DMSO (PISA); higher = thermal stabilisation; K562 cells, 10 uM, 30 min; active = over 0.2 and 3.5 SD of the protein, either way, in both replicates (recomputed). Summed up:
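K562 cells at 2×10^6 cells/mL were exposed to 10 μM compound for 30 min, then aliquots were heated for 3 min across 48°C-58°C, pooled, and extracted in PBS containing 0.5% NP-40 at 4°C. The supernatant after 21,000xg for 90 min was taken as soluble protein and measured by TMTpro 16plex LC-MS/MS with channel sums equalised. Thermal stability is reported relative to control samples, with values from duplicates. Fold changes are given on a log2 scale.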
Regarding RBBP7 (UniProt Q16576), the log2 fold change is inactive: 0.025.
To RAB32 (UniProt Q13637) belongs inactive: -0.068; to RAP1B (UniProt F5GZG1), inactive: 0.042.
Under RANBP1 (UniProt P43487) stands inactive: -0.025; under RAB5B (UniProt P61020), inactive: -0.03; under RAB6D (UniProt Q53S08), inactive: -0.068.
Under RAB12, A0A3B3ITT1 stands inactive: -0.036; under RAB7A (UniProt P51149), inactive: 0.013; under RABL6 (UniProt Q3YEC7), inactive: -0.022.
For RAB3IP (UniProt Q96QF0), the log2 fold change was inactive: -0.026.
Consider RAB3A (UniProt P20336), for which the log2 fold change was inactive: 0.022.
Under RBBP4 (UniProt Q09028) stands inactive: 0.003; under RAB23 (UniProt Q9ULC3), inactive: -0.06; under RAB13 (UniProt P51153), inactive: -0.082.
To RAD51D (UniProt O75771) belongs inactive: -0.05; to RASSF3 (UniProt Q86WH2), inactive: 0.016.
To RAB35 (UniProt Q15286) belongs inactive: 0.049; to RAP2A (UniProt P10114), inactive: 0.049.
Take RABAC1 (UniProt Q9UI14): the log2 fold change is inactive: -0.014.
Under RAC2 (UniProt P15153) stands inactive: 0.014.
As for RABEPK (UniProt Q7Z6M1), the log2 fold change was inactive: 0.017.
To RAPGEF5, A0A590UJR0 belongs inactive: -0.125; to RAB31 (UniProt Q13636), inactive: -0.008.
For the target RAB43 (UniProt Q86YS6), the log2 fold change is inactive: -0.061.
To RAP1A (UniProt P62834) belongs inactive: -0.001; to RAB6B (UniProt Q9NRW1), inactive: -0.066; to RAB30 (UniProt Q15771), inactive: 0.02.
To RAD23A (UniProt P54725) belongs inactive: 0.002.
To RBM28 (UniProt Q9NW13) belongs inactive: 0.22.
As for RAB2A (UniProt P61019), the log2 fold change is inactive: 0.005.
Under RAN (UniProt P62826) stands inactive: 0.007.
For RANGAP1 (UniProt P46060), the log2 fold change is inactive: 0.02.
Under RAB24 (UniProt Q969Q5) stands inactive: -0.065; under RAB20 (UniProt Q9NX57), inactive: -0.047; under RAP2B (UniProt P61225), inactive: 0.033.
